The record followed here is PMC3522597.

Protein sequences, listed by entry. Tags and fused reporters are not part of them. Lines headed by an entry give the natural chain unless they say otherwise; changes in a name come on top.
UniProt Q13153: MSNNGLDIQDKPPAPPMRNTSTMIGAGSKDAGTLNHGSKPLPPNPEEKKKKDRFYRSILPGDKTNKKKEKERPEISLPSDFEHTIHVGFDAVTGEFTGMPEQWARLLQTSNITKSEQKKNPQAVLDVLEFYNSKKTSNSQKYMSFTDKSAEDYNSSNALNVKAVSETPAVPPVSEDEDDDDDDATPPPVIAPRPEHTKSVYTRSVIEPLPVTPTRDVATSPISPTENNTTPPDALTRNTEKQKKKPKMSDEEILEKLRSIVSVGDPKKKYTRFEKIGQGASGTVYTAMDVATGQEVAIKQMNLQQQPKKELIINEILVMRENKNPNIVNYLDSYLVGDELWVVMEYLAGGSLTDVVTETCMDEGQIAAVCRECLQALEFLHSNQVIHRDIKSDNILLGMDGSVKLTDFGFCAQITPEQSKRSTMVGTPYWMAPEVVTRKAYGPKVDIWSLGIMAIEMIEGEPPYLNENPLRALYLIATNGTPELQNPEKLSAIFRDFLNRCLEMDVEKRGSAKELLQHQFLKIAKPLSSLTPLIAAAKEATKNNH
UniProt P60953: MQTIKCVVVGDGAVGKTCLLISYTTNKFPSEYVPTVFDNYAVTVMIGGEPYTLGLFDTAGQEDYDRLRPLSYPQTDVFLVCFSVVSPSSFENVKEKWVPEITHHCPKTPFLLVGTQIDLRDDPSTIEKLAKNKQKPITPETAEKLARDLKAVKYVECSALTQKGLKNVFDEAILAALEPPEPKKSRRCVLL

These are yes or no findings as the source states them, for the method shown. In cells and extracts the contact can be indirect. Binding can be weak; no strength is given.

The test concerns the target p21-activated kinase (PAK) Rac1 binding domain-GST fusion (UniProt Q13153). Nature of the test: pull-down; GST effector-domain fusion on beads incubated with Du145-Mock or -KAI1/CD82 cell lysate (RIPA: 1% NP40, 0.2% SDS, 150 mM NaCl, 25 mM HEPES) at 4°C for 45 min, three washes, immunoblot; cells in regular culture, serum-starved or HGF-treated; only the target purified. In general terms: A western blot detects proteins with antibodies after separation by electrophoresis.

For “Cdc42, GTP-bound (from UniProt P60953 1-191)”, the binding result is listed as “binds”.
